# Measurements published in the supplement of paper PMC12819154, “High-throughput peptide-centric local stability assay extends protein–ligand identification to membrane proteins, tissues and bacteria” (Nature Structural & Molecular Biology, 2025).
# Amino acid sequences for entries named in this document (tags omitted). A change or cut given only in a name is not applied to a line headed by its entry.
# UniProt Q9HB58: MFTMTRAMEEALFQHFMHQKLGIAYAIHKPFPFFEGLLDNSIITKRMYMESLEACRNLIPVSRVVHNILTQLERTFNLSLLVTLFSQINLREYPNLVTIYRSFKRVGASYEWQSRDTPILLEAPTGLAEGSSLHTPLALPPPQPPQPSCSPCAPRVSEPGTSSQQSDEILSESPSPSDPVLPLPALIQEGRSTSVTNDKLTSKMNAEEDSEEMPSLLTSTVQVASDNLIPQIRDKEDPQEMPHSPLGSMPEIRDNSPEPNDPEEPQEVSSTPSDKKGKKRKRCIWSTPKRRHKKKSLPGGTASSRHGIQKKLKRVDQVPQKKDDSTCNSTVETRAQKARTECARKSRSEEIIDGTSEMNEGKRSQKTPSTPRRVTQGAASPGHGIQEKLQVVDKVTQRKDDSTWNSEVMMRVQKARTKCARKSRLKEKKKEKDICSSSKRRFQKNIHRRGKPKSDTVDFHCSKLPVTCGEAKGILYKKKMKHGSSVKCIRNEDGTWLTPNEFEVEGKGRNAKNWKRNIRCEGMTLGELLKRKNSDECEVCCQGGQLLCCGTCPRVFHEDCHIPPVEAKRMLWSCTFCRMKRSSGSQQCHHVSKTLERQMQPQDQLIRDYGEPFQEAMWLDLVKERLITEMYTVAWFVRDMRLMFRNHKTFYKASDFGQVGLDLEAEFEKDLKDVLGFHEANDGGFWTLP
# UniProt Q9H3C7, whole entry: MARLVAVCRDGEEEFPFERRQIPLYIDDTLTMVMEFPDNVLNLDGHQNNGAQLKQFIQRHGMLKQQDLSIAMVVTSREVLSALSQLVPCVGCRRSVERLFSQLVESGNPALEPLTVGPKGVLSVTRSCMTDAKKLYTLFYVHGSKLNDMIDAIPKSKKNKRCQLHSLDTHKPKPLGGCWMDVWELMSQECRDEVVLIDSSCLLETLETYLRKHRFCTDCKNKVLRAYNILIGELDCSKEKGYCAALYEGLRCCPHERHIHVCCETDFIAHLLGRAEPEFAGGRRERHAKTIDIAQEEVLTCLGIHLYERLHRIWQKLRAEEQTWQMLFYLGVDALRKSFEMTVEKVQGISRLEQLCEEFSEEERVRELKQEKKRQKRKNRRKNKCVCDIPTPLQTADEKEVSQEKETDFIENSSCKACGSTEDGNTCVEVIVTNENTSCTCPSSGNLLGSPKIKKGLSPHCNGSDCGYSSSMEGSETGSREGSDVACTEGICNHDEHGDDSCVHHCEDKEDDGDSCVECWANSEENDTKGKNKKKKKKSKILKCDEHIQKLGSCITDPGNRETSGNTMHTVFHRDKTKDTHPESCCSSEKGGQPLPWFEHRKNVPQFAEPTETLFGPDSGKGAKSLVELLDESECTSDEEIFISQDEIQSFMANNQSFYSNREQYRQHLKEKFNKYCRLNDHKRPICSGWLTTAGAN
# UniProt Q9H8Y5: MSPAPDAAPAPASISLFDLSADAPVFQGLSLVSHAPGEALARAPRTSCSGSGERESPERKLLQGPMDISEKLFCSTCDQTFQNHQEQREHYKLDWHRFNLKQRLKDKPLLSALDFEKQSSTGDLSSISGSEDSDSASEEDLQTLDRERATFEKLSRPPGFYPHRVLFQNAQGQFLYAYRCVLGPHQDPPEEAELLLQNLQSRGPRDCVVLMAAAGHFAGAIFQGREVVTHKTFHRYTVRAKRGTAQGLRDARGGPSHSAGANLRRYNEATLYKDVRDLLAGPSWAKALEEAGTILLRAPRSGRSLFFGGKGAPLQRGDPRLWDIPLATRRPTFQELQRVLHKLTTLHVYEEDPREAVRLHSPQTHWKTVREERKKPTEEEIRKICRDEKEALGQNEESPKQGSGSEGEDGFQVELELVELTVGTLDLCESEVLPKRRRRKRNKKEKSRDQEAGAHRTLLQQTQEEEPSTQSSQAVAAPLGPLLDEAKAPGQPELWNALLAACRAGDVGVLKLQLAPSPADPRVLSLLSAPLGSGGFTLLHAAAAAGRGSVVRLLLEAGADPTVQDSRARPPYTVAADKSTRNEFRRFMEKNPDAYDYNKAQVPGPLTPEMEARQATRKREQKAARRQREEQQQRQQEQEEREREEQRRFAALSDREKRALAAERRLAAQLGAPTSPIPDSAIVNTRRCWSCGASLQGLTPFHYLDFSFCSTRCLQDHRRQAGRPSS
# UniProt Q9H2U2: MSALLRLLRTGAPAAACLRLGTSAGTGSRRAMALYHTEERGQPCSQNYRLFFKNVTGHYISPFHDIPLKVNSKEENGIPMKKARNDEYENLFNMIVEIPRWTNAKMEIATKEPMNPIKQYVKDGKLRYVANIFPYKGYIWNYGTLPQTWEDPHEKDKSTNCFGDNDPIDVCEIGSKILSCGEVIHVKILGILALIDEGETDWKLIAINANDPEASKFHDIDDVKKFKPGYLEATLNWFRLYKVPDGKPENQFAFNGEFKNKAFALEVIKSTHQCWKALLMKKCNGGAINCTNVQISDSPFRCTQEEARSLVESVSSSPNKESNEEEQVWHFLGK
# UniProt Q9H5J8: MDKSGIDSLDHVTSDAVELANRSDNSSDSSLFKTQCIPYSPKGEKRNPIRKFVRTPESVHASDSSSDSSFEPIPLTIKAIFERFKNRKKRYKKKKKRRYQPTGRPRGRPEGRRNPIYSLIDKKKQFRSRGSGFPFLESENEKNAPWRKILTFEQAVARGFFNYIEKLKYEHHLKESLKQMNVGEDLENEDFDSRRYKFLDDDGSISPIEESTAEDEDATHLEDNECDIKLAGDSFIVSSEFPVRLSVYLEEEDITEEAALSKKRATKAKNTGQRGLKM
# UniProt Q9H9L7: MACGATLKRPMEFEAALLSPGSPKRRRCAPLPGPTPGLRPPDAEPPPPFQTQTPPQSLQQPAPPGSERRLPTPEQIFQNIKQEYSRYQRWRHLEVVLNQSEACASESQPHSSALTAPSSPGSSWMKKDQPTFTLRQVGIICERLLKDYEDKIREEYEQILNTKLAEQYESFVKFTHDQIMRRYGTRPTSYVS
# UniProt Q9H5V7: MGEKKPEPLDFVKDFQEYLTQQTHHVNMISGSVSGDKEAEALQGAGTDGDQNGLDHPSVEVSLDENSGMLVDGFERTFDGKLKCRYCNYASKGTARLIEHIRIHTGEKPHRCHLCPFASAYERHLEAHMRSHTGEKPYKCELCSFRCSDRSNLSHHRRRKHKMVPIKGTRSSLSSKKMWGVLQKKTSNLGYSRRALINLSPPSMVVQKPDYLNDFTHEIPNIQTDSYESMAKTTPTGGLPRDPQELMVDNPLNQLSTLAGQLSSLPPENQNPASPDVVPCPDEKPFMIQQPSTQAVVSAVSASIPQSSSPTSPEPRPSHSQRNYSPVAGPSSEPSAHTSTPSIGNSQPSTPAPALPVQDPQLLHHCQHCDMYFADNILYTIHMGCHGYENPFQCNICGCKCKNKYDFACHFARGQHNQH
# UniProt Q9H1J7: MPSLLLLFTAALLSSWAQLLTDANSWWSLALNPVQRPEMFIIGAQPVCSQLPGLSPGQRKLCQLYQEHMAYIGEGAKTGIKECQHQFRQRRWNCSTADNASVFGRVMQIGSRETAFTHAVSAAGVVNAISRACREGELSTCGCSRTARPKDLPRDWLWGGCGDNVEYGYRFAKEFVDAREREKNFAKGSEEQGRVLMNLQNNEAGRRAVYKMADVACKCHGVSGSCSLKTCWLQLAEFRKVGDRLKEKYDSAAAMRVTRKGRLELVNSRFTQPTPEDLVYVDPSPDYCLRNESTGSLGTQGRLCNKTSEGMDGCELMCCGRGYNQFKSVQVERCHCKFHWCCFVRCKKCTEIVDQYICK
# UniProt Q9H8V3: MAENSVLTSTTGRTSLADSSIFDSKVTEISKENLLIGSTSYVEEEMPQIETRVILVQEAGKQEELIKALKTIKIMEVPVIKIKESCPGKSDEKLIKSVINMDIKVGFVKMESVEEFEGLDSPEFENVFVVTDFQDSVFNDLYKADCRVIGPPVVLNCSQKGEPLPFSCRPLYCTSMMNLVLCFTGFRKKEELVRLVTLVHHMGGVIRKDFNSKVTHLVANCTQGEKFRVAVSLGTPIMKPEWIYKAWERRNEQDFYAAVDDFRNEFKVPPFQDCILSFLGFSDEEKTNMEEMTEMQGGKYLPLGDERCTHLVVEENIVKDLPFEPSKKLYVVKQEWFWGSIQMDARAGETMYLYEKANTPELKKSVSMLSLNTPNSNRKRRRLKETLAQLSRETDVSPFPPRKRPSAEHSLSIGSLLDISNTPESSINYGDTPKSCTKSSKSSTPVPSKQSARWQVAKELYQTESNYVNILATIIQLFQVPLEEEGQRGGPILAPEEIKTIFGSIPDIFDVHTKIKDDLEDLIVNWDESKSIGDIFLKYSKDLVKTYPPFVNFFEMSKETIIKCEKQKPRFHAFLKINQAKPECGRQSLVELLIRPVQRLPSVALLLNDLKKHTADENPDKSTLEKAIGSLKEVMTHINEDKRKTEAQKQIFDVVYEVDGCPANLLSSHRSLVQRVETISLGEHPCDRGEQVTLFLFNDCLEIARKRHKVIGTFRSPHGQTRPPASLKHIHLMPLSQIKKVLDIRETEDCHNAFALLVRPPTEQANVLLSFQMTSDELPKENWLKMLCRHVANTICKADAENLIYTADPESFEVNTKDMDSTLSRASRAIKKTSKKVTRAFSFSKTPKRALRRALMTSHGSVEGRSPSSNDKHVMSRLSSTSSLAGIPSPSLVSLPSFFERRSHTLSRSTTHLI
# UniProt Q9HAW0, whole entry: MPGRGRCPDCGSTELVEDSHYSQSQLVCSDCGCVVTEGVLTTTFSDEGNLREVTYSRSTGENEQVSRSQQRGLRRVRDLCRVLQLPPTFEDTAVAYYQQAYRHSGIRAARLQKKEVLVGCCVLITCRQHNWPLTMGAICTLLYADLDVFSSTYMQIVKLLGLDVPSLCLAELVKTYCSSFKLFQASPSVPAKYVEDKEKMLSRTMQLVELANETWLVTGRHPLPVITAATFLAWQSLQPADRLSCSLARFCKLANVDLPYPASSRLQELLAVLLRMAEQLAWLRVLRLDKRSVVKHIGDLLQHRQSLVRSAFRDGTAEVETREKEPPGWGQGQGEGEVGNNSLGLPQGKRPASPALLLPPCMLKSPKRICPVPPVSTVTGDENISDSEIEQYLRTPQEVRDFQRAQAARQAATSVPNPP
# UniProt Q9H4A5: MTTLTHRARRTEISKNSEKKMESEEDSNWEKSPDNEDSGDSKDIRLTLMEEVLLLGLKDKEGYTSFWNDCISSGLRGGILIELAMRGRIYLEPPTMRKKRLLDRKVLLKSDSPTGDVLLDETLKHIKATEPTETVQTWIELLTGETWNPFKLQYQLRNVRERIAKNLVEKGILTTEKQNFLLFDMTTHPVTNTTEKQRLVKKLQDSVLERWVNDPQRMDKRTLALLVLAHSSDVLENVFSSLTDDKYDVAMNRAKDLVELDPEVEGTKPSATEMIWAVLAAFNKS
# This is one part of the list. Small differences around the control level are noise.
# Compound: Cc1nc(Nc2ncc(C(=O)Nc3c(C)cccc3Cl)s2)cc(N2CCN(CCO)CC2)n1 [dasatinib]
# Assay: log2 fold change of tryptic peptide abundance, ligand vs vehicle (limited proteolysis) (log2 ratio); higher = more trypsin-susceptible (destabilized)
# Conditions: ligand concentration: 5 uM; sample: K562 cleared lysate
row,Target,log2 fold change
1,"SP110 (peptide sequence: LQVVDKVTQR, peptide start residue: 389) (UniProt Q9HB58)",-0.75
2,"GGNBP2 (peptide sequence: HIHVCCETDFIAHLLGR, peptide start residue: 258) (UniProt Q9H3C7)",-0.267
3,"ANKZF1 (peptide sequence: EALGQNEESPK, peptide start residue: 390) (UniProt Q9H8Y5)",-0.414
4,"PPA2 (peptide sequence: ILSCGEVIHVK, peptide start residue: 177) (UniProt Q9H2U2)",0.605
5,"UniProt Q9H5J8 (peptide sequence: RNPIYSLIDKK, peptide start residue: 113)",0.331
6,"AKIRIN1 (peptide sequence: RLPTPEQIFQNIK, peptide start residue: 69) (UniProt Q9H9L7)",0.821
7,"UniProt Q9H5V7 (peptide sequence: YCNYASK, peptide start residue: 86)",-0.428
8,"UniProt Q9H1J7 (peptide sequence: VLMNLQNNEAGRR, peptide start residue: 195)",0.162
9,"ECT2 (peptide sequence: ALMTSHGSVEGR, peptide start residue: 854) (UniProt Q9H8V3)",-0.609
10,"BRF2 (peptide sequence: YVEDKEK, peptide start residue: 193) (UniProt Q9HAW0)",-0.461
11,"GOLPH3L (peptide sequence: KLQDSVLER, peptide start residue: 202) (UniProt Q9H4A5)",0.14

# Rewritten with tabs: entries from further up
row	Target	log2 fold change
4	PPA2 (peptide sequence: ILSCGEVIHVK, peptide start residue: 177) (UniProt Q9H2U2)	0.605
11	GOLPH3L (peptide sequence: KLQDSVLER, peptide start residue: 202) (UniProt Q9H4A5)	0.14
